PubChem BioAssay AID1259308 – NCATS – 2017
The whole screen tested about 59,000 reagents; this is an unselected part. About 1,510 of them (2.6%) were called active. 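Calls use total luciferase alone and ignore viability, so some active siRNAs may act by altering cell number.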 Reagents against one gene are numbered here.

- Aim: 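Genes whose loss raises luciferase production in HEK293 cells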 (primary screen)
- System: human HEK293 embryonic kidney cells stably expressing firefly luciferase (HEK-CMV-Luc2-Hygro)
- Knock-down reagent: single siRNA against human genes, 0.8 pmol siRNA per well
- Time to read-out: 72 h
- Read-out: 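Luciferase light (ONE-Glo) measured on one replicate plate set and viability (CellTiter-Glo) on the other, scaled to a negative control siRNA, with robust z-scores and luciferase per cell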
- Direction: total luciferase, z-score and total luciferase, % of control: higher = more reporter protein produced; luciferase per cell, z-score: higher = more reporter output per viable cell; viable cells, % of control: higher = more viable cells
- Hit rule: 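Active when the median/MAD z-score for overall luciferase is greater than 3; a gene was taken forward for validation with new siRNAs if at least two of its three siRNAs passed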
- Meaning of the calls: active = raised luciferase; inactive = no rise

| gene | reagent no. | total luciferase, z-score | total luciferase, % of control | luciferase per cell, z-score | viable cells, % of control | outcome |
| --- | --- | --- | --- | --- | --- | --- |
| OR2F1 (olfactory receptor family 2 subfamily F member 1) | 1 | 0.388 | 89.6 | 0.344 | 91.4 | inactive |
| OR2F1 (olfactory receptor family 2 subfamily F member 1) | 2 | -2.87 | 24.8 | -4.25 | 84.8 | inactive |
| OR2F1 (olfactory receptor family 2 subfamily F member 1) | 3 | 0.322 | 88.3 | -0.338 | 108 | inactive |
| HEMGN (hemogen) | 1 | 0.192 | 85.7 | 0.243 | 89.8 | inactive |
| HEMGN (hemogen) | 2 | 0.152 | 84.9 | -0.294 | 103 | inactive |
| HEMGN (hemogen) | 3 | 0.228 | 86.4 | 0.39 | 87.2 | inactive |
| SLC22A2 | 1 | -0.221 | 77.5 | -0.643 | 103 | inactive |
| SLC22A2 | 2 | 0.115 | 84.2 | -0.649 | 112 | inactive |
| SLC22A2 | 3 | -0.809 | 65.8 | -0.751 | 89.6 | inactive |
| SLC39A4 | 1 | -0.145 | 79 | -0.608 | 104 | inactive |
| SLC39A4 | 2 | -0.329 | 75.3 | -0.22 | 89.2 | inactive |
| SLC39A4 | 3 | -0.279 | 76.3 | -0.353 | 93.6 | inactive |
| NR2F2 (nuclear receptor subfamily 2 group F member 2) | 1 | 0.393 | 89.7 | -0.288 | 108 | inactive |
| NR2F2 (nuclear receptor subfamily 2 group F member 2) | 2 | 0.0216 | 82.3 | -0.443 | 103 | inactive |
| NR2F2 (nuclear receptor subfamily 2 group F member 2) | 3 | 1.31 | 108 | 1.09 | 90.6 | inactive |
| DUSP2 (dual specificity phosphatase 2) | 1 | -0.911 | 63.8 | -0.668 | 85 | inactive |
| DUSP2 (dual specificity phosphatase 2) | 2 | -0.607 | 69.8 | -1.1 | 104 | inactive |
| DUSP2 (dual specificity phosphatase 2) | 3 | -0.0437 | 81 | -0.806 | 112 | inactive |
| PDE7B-AS1 (PDE7B antisense RNA 1) | 1 | 1.97 | 121 | 1.55 | 90 | inactive |
| PDE7B-AS1 (PDE7B antisense RNA 1) | 2 | 0.477 | 91.4 | -0.117 | 105 | inactive |
| PDE7B-AS1 (PDE7B antisense RNA 1) | 3 | -0.317 | 75.6 | -0.375 | 93.2 | inactive |
| FAM174A (family with sequence similarity 174 member A) | 1 | -1.11 | 59.8 | -1.55 | 100 | inactive |
| FAM174A (family with sequence similarity 174 member A) | 2 | 0.0813 | 83.5 | 0.381 | 84.4 | inactive |
| FAM174A (family with sequence similarity 174 member A) | 3 | -0.388 | 74.2 | -0.0866 | 84.8 | inactive |

Individual results from above:
Value for OR2F1 (olfactory receptor family 2 subfamily F member 1) #1 under “total luciferase, % of control”: 89.6
SLC39A4 #2, outcome = inactive

The results go on:
| gene | reagent no. | total luciferase, z-score | total luciferase, % of control | luciferase per cell, z-score | viable cells, % of control | outcome |
| --- | --- | --- | --- | --- | --- | --- |
| TMEM230 (transmembrane protein 230) | 1 | 1.79 | 117 | 1.78 | 82.1 | inactive |
| TMEM230 (transmembrane protein 230) | 2 | 2.6 | 134 | 2.08 | 86.4 | inactive |
| TMEM230 (transmembrane protein 230) | 3 | -0.256 | 76.8 | -0.812 | 106 | inactive |
| SRP9 (signal recognition particle 9) | 1 | 1.36 | 109 | 0.701 | 101 | inactive |
| SRP9 (signal recognition particle 9) | 2 | 0.878 | 99.4 | 0.76 | 90.9 | inactive |
| SRP9 (signal recognition particle 9) | 3 | 1.05 | 103 | 1.37 | 80 | inactive |
| CCT4 (chaperonin containing TCP1 subunit 4) | 1 | 2.04 | 122 | 2.04 | 80 | inactive |
| CCT4 (chaperonin containing TCP1 subunit 4) | 2 | 2.4 | 130 | 2.26 | 79.8 | inactive |
| CCT4 (chaperonin containing TCP1 subunit 4) | 3 | 2.08 | 123 | 1.45 | 94 | inactive |
| LOC729316 (POM121 membrane glycoprotein pseudogene) | 1 | 2.89 | 139 | 2.81 | 74.4 | inactive |
| LOC729316 (POM121 membrane glycoprotein pseudogene) | 2 | 1.84 | 119 | 1.54 | 88.2 | inactive |
| LOC729316 (POM121 membrane glycoprotein pseudogene) | 3 | 1.78 | 117 | 0.836 | 105 | inactive |
| HACD2 (3-hydroxyacyl-CoA dehydratase 2) | 1 | -0.887 | 64.2 | -0.618 | 84.5 | inactive |
| HACD2 (3-hydroxyacyl-CoA dehydratase 2) | 2 | 1.53 | 112 | 1.01 | 96.2 | inactive |
| HACD2 (3-hydroxyacyl-CoA dehydratase 2) | 3 | -0.439 | 73.2 | -1.02 | 107 | inactive |
| SRGN (serglycin) | 1 | -2.44 | 33.3 | -3.17 | 85.8 | inactive |
| SRGN (serglycin) | 2 | 0.438 | 90.6 | 0.421 | 90.6 | inactive |
| SRGN (serglycin) | 3 | 0.426 | 90.4 | 2.26 | 55.6 | inactive |
| TBC1D12 (TBC1 domain family member 12) | 1 | 3.24 | 146 | 2.26 | 90.1 | active |
| TBC1D12 (TBC1 domain family member 12) | 2 | -0.0311 | 81.3 | -0.303 | 98.4 | inactive |
| TBC1D12 (TBC1 domain family member 12) | 3 | 0.0456 | 82.8 | -0.131 | 95.8 | inactive |
| KLF13 (KLF transcription factor 13) | 1 | -0.966 | 62.7 | -0.682 | 83.8 | inactive |
| KLF13 (KLF transcription factor 13) | 2 | -0.501 | 71.9 | -0.727 | 97.3 | inactive |
| KLF13 (KLF transcription factor 13) | 3 | 0.475 | 91.3 | 1.67 | 65.7 | inactive |
| ADAMTSL2 (ADAMTS like 2) | 1 | -0.72 | 67.6 | 0.0783 | 74 | inactive |
| ADAMTSL2 (ADAMTS like 2) | 2 | 0.506 | 91.9 | 0.4 | 92.5 | inactive |
| ADAMTSL2 (ADAMTS like 2) | 3 | 1.44 | 110 | 1.88 | 75.3 | inactive |
| HSD3B1 | 1 | 0.345 | 88.8 | 0.23 | 93.4 | inactive |
| HSD3B1 | 2 | -0.333 | 75.3 | -0.387 | 93.1 | inactive |
| HSD3B1 | 3 | -1.33 | 55.4 | -1.71 | 97 | inactive |
| B3GALT6 (beta-1,3-galactosyltransferase 6) | 1 | -0.645 | 69.1 | -0.941 | 98.8 | inactive |
| B3GALT6 (beta-1,3-galactosyltransferase 6) | 2 | 0.541 | 92.6 | 0.084 | 101 | inactive |
| B3GALT6 (beta-1,3-galactosyltransferase 6) | 3 | 1.16 | 105 | 1.24 | 84.8 | inactive |
